These are yes or no findings as the source states them, for the method shown. Binding seen in cells or lysates may run through a third protein. Binding can be weak; no strength is given.
Tests used:
[1] = target: FLAG-tagged ETV1 derivative (human) (UniProt P50549); assay: co-IP; whole cell lysate (2 mg) of p53+ or p53- HCT116 cells expressing Flag-ETV1; IP lysis buffer 50 mM Tris-Cl pH 7.4, 250 mM NaCl, 5 mM EDTA, 0.2% Triton X-100, 0.5 mM DTT; antibody to ATR or to Flag (control IgG) overnight at 4°C, Dynabeads Protein G; both orientations, immunoblot
[2] = target: ATR (human (endogenous in HCT116)) (UniProt Q13535); assay: as above

Protein sequences, listed by entry. Tags and fused reporters are not part of them. Lines headed by an entry give the natural chain unless they say otherwise; changes in a name come on top.
UniProt P50549: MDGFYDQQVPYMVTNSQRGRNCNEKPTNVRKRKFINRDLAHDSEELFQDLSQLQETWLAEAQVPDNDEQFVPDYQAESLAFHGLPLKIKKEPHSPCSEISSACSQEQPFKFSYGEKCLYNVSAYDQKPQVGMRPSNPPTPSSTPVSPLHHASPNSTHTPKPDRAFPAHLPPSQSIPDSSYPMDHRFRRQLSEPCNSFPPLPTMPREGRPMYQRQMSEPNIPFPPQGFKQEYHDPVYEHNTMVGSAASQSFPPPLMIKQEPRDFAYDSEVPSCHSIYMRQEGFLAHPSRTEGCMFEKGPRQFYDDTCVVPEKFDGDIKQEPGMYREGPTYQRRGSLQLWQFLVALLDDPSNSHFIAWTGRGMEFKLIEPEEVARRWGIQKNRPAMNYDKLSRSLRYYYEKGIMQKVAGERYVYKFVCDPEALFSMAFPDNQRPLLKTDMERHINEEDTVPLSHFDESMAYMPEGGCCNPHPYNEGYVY
UniProt Q13535: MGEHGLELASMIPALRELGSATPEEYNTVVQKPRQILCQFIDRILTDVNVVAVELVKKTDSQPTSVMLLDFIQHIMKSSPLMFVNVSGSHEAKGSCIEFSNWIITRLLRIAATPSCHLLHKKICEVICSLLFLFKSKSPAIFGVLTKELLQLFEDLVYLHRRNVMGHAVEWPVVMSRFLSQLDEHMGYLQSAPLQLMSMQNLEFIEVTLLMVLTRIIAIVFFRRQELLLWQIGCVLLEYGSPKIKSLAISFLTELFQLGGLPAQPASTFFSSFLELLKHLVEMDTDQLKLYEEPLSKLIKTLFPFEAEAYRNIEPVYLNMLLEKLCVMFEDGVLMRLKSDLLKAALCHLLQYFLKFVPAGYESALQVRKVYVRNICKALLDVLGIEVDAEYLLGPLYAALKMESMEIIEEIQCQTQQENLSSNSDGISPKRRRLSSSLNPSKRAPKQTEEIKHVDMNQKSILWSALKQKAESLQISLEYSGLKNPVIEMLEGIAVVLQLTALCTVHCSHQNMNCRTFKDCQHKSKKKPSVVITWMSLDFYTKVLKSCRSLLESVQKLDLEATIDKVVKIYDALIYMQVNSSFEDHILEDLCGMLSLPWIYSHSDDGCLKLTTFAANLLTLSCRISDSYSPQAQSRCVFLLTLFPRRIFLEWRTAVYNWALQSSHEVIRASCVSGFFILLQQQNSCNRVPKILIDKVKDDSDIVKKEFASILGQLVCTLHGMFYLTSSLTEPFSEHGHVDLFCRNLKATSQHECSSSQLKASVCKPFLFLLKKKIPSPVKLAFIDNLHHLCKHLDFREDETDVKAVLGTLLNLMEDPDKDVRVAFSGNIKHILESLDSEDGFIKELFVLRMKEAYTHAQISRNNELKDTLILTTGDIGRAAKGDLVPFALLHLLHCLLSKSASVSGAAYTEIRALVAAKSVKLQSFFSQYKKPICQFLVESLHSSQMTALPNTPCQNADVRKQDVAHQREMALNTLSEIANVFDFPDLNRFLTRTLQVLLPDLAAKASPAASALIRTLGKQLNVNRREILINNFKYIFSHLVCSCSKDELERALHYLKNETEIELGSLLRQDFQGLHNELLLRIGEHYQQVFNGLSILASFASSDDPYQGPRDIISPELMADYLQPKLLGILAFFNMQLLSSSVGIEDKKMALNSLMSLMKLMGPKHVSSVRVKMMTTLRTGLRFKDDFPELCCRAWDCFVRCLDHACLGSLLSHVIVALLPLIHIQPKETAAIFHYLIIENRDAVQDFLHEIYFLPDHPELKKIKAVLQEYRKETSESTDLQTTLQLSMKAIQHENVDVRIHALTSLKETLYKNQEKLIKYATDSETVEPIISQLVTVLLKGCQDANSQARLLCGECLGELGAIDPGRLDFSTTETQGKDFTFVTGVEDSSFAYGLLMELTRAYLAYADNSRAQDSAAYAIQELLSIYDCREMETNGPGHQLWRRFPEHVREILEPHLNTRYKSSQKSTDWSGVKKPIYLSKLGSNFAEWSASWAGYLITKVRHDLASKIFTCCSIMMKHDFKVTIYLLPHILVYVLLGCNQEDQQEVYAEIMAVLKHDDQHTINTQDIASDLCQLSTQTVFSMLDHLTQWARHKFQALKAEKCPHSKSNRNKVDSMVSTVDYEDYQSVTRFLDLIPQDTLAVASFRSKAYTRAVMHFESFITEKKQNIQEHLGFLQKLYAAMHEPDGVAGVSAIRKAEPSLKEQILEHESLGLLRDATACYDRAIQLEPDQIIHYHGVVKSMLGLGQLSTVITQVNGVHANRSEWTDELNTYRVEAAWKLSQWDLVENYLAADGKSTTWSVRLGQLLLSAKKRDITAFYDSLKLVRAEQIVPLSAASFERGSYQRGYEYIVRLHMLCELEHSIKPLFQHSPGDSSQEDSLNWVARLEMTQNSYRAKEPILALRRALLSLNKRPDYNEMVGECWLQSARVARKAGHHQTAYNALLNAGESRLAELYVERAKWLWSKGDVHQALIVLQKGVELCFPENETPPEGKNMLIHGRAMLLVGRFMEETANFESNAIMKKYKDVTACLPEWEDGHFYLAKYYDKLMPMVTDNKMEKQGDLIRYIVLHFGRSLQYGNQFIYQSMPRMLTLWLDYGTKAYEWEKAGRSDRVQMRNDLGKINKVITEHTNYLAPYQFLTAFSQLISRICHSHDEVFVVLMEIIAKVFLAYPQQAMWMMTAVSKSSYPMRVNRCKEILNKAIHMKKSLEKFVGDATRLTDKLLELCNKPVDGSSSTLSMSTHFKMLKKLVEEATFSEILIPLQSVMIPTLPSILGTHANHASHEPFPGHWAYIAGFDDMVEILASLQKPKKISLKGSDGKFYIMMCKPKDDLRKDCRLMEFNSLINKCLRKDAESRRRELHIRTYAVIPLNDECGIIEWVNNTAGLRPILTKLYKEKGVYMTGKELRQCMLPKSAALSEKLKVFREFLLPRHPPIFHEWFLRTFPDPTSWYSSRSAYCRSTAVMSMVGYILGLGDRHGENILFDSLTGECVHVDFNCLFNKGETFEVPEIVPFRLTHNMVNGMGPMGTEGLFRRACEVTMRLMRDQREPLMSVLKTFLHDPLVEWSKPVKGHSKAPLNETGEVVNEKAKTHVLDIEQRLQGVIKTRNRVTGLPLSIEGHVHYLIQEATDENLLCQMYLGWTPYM

| binding [1] | binding [2] | Substance |
| --- | --- | --- |
| binds | – | ATR (from UniProt Q13535-1 1-2644) (enzyme) |
| – | binds | FLAG-tagged ETV1 derivative (from UniProt P50549-1) |

From article PMC3527276
